Experimental data from paper PMC7810988, “Inositol pyrophosphates promote the interaction of SPX domains with the coiled-coil motif of PHR transcription factors to regulate plant phosphate homeostasis” (Nature Communications, 2021).
Construct, isoform or probe ends are uncertain for at least one entry. At least one verdict rests on a figure or table, not on a statement of the authors.

The chains behind the UniProt entries cited, without tags or fusion partners. Where a name states a change or a piece, a line headed by the entry shows the natural chain unless it says otherwise.
UniProt Q6Z156: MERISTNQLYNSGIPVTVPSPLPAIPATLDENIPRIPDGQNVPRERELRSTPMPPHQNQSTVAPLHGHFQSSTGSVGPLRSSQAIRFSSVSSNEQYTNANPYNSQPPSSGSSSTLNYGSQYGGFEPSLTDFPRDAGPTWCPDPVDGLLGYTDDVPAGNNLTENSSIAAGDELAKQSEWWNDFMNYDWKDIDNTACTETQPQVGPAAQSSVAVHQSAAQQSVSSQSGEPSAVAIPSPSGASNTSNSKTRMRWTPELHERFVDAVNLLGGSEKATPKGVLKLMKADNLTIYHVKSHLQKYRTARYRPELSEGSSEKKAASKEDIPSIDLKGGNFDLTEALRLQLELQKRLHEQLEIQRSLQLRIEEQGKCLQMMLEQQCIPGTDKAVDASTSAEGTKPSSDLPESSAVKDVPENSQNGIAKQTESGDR

Target: OsPHR2 (UniProt Q6Z156)
Assay: GCI
Conditions: 4 C, 200 mM NaCl, Kd only in figure; GCI at 4 C: AtPHR1 in 20 mM HEPES pH 7.5, 300 mM NaCl; OsPHR2 in 20 mM HEPES pH 7.9, 200 mM NaCl; recombinant protein; residues 1-426; protein details: His8-Strep-GB1 N-terminal, TEV-cleaved; label: 5'-biotin on strand 1

Does “TAATGCTCGCCGCATATCCTTTGGTAGATA (double strand) [pOsIPS1 biotin]” bind?
Result: binds
